Source: the supplement of paper PMC12595434, “Development of retinoid nuclear receptor pathway antagonists through targeting aldehyde dehydrogenase 1A3” (iScience, 2025)
Some of the results follow. This is a noisy data set.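 Tm was set to 64 °C where no melting was found, and many curves are irregular.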

Chains of the proteins cited; added tags and fusions are not shown. Lines headed by an entry give the natural chain unless they say otherwise; changes in a name come on top.
UniProt Q9BRU9: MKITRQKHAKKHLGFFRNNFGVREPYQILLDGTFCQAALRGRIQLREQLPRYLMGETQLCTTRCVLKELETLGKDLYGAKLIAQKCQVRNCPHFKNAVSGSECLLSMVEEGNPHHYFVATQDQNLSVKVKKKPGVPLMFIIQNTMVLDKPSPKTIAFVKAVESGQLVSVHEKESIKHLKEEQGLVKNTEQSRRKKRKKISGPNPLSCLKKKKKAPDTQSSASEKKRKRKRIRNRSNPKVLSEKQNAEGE
UniProt Q9BXK5, whole entry: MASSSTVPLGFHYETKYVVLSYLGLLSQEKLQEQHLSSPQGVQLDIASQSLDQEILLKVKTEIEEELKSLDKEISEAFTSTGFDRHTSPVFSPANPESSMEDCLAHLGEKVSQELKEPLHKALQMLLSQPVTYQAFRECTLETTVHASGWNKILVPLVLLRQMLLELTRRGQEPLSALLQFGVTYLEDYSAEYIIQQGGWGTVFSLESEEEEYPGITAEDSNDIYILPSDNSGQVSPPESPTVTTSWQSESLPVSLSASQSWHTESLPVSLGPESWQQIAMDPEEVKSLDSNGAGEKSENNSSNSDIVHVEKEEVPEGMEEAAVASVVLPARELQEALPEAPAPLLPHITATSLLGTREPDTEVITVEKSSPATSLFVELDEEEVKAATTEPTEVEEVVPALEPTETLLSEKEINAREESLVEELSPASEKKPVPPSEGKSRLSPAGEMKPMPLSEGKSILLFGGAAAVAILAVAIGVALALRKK
UniProt Q9BWD1: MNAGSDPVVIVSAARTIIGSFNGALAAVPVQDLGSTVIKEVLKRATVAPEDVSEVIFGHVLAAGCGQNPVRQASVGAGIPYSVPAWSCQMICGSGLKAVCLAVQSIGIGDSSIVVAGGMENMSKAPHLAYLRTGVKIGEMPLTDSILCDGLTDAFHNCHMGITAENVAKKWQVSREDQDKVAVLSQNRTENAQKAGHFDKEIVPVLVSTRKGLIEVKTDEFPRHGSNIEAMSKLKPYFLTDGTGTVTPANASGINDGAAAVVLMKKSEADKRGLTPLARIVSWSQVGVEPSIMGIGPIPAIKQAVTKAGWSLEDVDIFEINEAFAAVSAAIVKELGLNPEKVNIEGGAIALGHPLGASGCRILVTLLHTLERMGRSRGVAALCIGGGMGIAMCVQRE
UniProt Q99700, whole entry: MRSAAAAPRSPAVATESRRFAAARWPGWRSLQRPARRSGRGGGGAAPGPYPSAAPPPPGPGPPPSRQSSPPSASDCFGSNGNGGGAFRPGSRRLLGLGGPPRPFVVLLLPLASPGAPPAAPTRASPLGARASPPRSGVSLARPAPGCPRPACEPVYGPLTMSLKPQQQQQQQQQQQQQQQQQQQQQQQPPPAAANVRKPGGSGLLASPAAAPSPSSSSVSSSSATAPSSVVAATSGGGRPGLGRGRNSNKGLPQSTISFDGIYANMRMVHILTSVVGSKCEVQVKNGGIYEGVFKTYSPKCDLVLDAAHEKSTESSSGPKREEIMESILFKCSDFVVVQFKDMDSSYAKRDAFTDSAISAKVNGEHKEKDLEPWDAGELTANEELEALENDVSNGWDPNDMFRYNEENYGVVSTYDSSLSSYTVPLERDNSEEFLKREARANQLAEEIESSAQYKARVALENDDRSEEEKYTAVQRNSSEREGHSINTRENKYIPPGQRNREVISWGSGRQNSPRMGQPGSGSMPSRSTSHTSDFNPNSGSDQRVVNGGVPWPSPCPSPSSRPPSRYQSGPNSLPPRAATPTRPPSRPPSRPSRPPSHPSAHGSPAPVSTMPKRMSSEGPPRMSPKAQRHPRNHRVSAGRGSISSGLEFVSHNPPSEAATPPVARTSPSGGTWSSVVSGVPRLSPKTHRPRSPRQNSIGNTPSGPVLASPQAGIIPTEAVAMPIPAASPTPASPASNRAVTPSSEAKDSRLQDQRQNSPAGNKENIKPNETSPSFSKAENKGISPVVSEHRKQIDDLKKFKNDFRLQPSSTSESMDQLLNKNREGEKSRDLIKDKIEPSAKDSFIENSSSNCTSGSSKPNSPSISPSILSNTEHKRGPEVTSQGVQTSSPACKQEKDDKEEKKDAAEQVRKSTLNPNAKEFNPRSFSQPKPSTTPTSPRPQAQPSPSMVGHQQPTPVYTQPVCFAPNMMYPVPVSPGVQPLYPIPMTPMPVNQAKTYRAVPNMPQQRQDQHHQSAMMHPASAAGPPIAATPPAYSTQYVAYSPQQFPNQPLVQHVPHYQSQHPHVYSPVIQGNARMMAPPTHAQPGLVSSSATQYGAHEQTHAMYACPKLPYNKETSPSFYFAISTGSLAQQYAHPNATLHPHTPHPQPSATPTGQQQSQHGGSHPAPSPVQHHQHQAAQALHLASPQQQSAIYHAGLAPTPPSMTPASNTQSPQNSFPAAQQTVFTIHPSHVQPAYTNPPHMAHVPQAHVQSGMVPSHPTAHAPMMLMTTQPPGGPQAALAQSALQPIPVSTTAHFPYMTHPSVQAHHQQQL
UniProt Q9BUR5: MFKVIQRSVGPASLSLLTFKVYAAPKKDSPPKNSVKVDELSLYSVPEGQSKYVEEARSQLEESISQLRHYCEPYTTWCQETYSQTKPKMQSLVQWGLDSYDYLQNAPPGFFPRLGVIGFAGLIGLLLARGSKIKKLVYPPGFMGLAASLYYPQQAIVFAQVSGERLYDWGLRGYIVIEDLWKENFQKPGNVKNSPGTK
UniProt Q99836, whole entry: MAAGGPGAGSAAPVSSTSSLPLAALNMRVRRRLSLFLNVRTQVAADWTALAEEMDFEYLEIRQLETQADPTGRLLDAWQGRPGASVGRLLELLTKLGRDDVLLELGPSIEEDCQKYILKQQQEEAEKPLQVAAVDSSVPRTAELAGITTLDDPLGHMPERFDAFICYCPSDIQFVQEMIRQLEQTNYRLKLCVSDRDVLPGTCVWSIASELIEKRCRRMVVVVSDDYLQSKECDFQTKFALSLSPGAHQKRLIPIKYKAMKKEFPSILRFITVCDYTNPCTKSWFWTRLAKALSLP
UniProt Q9BVV6: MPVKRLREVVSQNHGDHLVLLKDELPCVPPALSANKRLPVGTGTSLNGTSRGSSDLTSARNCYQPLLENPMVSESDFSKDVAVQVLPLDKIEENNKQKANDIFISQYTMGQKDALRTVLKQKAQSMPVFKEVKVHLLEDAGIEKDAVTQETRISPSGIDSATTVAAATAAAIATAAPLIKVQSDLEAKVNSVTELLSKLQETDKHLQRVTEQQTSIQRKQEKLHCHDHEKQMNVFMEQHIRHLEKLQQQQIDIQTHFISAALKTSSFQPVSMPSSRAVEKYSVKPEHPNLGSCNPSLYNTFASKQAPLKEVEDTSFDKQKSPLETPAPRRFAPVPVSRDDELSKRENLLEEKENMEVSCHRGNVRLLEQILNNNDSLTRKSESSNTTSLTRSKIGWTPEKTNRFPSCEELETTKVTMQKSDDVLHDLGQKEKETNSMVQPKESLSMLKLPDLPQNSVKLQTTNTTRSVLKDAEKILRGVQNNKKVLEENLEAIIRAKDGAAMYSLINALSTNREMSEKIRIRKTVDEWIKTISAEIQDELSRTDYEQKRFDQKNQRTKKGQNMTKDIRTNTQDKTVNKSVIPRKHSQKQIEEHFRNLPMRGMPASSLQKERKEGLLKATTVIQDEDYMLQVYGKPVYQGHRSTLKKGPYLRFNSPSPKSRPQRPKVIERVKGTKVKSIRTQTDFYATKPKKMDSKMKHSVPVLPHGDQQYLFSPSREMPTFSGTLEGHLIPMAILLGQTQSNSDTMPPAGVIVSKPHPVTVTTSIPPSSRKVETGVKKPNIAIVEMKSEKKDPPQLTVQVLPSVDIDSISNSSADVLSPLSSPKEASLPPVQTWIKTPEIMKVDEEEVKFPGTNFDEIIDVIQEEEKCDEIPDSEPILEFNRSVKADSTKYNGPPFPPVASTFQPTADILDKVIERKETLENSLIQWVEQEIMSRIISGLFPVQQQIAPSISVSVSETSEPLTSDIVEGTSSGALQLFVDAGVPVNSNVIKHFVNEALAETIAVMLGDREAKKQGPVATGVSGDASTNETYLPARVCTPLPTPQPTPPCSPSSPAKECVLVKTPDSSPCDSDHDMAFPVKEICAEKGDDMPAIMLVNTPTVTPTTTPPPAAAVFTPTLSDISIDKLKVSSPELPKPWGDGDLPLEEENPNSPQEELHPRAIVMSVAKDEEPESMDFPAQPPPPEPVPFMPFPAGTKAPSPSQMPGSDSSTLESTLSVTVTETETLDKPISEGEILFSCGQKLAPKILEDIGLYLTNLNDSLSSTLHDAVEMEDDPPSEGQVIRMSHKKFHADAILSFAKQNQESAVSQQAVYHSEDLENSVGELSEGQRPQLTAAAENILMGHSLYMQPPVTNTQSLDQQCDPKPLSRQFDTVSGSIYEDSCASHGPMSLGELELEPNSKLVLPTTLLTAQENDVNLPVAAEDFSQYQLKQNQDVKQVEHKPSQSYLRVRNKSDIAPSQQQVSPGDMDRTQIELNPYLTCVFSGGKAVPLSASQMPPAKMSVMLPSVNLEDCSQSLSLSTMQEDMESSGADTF
UniProt Q9BUN8: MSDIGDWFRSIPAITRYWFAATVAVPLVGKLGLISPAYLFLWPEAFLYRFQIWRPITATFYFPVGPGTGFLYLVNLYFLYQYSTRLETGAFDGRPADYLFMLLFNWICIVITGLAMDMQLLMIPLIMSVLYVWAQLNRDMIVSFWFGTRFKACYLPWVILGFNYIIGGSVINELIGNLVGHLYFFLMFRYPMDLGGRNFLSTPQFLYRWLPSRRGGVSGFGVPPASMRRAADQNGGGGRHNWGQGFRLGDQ
UniProt Q99623, whole entry: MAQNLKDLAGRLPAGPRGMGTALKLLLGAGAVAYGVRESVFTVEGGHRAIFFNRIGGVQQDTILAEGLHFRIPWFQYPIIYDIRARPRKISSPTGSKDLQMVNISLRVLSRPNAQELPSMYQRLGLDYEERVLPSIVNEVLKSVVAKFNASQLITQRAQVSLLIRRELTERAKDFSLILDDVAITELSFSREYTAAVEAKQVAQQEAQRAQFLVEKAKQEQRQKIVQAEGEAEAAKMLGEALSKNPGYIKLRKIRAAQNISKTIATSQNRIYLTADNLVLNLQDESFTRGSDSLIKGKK
UniProt Q9BRT2: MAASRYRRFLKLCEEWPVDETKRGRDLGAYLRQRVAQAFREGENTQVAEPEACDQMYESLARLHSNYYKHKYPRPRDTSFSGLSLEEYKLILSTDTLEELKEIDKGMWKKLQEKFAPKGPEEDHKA
UniProt Q99538: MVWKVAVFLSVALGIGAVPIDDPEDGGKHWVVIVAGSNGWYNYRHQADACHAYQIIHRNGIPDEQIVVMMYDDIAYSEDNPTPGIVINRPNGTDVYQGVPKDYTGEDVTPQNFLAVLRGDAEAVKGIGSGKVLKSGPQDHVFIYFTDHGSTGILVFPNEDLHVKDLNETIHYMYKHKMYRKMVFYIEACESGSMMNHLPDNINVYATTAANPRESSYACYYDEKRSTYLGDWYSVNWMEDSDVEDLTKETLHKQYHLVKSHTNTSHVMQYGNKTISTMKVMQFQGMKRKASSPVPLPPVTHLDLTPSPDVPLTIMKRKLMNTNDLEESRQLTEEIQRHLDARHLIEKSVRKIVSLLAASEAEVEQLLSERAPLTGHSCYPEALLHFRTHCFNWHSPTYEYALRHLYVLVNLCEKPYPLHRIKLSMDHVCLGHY
UniProt Q9BU23: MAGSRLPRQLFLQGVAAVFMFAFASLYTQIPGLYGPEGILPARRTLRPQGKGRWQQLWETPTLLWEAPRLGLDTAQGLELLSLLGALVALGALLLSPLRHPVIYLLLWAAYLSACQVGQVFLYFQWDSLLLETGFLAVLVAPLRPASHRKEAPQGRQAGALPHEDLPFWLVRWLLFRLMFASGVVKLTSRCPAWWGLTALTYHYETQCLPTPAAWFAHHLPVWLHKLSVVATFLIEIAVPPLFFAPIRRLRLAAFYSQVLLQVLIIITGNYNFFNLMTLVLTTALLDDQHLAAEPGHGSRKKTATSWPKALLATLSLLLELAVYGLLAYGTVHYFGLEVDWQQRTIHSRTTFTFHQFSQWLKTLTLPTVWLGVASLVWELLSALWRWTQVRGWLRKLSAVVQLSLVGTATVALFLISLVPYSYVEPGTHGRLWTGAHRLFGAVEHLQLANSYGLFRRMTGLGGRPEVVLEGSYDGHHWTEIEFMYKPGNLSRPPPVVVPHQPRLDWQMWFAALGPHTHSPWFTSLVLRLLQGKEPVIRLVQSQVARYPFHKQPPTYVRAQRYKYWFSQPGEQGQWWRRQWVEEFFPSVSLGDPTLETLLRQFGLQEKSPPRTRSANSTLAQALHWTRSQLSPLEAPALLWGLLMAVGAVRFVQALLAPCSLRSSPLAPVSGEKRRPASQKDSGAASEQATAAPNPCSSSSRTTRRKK
UniProt Q9BSH5: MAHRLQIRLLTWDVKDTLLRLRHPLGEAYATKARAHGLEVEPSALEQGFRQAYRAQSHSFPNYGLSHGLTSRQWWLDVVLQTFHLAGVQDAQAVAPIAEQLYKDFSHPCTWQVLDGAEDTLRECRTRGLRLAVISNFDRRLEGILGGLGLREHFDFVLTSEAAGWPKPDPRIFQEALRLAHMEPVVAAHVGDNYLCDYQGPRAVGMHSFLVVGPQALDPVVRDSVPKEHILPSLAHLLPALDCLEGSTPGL

Compound: CCc1cnccc1C(=O)Nc1cc2c(cc1F)NC(=O)CC2
Test: melting temperature shift (DMSO Tm minus MBE1-treated Tm) in cellular thermal proteome profiling; higher = less thermal stabilization by MBE1 (negative = stabilized by MBE1)
Settings: A375

Target | melting temperature shift (MBE1 concentration: 100 nM) [°C] | melting temperature shift (MBE1 concentration: 1 uM) [°C]
UniProt Q9BWL3 | 0.492 | –
UniProt Q9BRU9 | -0.342 | 7.34
UniProt Q9BTV5 | 0.415 | -0.33
BCL2L13 (UniProt Q9BXK5) | -0.51 | -0.221
UniProt Q9BX63 | 2.34 | 1.49
PYM1 (UniProt Q9BRP8) | – | -3
ACAT2 (UniProt Q9BWD1) | -0.478 | 0.667
KIF2C (UniProt Q99661) | -1.21 | -0.259
NDC1 (UniProt Q9BTX1) | -0.195 | 0.434
ACO2 (UniProt Q99798) | 1.06 | 0.891
MMTAG2 (UniProt Q9BU76) | -2.41 | -5.29
ATXN2 (UniProt Q99700) | -0.128 | 0.714
APOO (UniProt Q9BUR5) | – | -2.76
UniProt Q99836 | -0.63 | –
KIAA0586 (UniProt Q9BVV6) | -0.181 | -0.666
DERL1 (UniProt Q9BUN8) | -3.67 | -3.67
PHB2 (UniProt Q99623) | -2.93 | 0.0236

Target | melting temperature shift (MBE1 concentration: 100 nM) [°C] | melting temperature shift (MBE1 concentration: 1 uM) [°C]
WDR77 (UniProt Q9BQA1) | -0.0134 | 0.322
HNRNPUL1 (UniProt Q9BUJ2) | -0.973 | -0.72
UniProt Q99550 | – | -2.04
PDCD2L (UniProt Q9BRP1) | 0.476 | 0.0427
PAPOLG (UniProt Q9BWT3) | 6.16 | 0.519
HINT2 (UniProt Q9BX68) | -1.58 | 1.74
UQCC2 (UniProt Q9BRT2) | -0.22 | -0.575
HTATIP2 (UniProt Q9BUP3) | 0.879 | -0.0916
SLC26A6 (UniProt Q9BXS9) | -3.1 | -0.302
UniProt Q9BY49 | – | 1.01
LGMN (UniProt Q99538) | -0.932 | 0.771
NDUFAF3 (UniProt Q9BU61) | -1.07 | -0.543
WAC (UniProt Q9BTA9) | -0.224 | -0.0897
LMF2 (UniProt Q9BU23) | -0.845 | –
HDHD3 (UniProt Q9BSH5) | -1.34 | -1.19
MKNK1 (UniProt Q9BUB5) | -0.366 | –

For convenience, some entries already given:
Target | melting temperature shift (MBE1 concentration: 100 nM) [°C] | melting temperature shift (MBE1 concentration: 1 uM) [°C]
WAC (UniProt Q9BTA9) | -0.224 | -0.0897
LMF2 (UniProt Q9BU23) | -0.845 | –
